Measurements from PMC7819943, “Rice protein-binding microarrays: a tool to detect cis-acting elements near promoter regions in rice”.
Some of the results follow.

What follows are sequences tested against T1, OsSMF1 (Oryza sativa, UniProt Q6ZLB0 1-436) (assay: protein-binding microarray (RPBM); PBS, 2% BSA, 51.3 ng/ul salmon testes DNA, 50 uM zinc acetate, 200 nM TF, 25 C, 1 h; high values mean tight binding). Conditions: protein: recombinant; tags: N-terminal polyhistidine and DsRed monomer fusion (pET32a); chain copies: 2; label: CyDye5-dUTP incorporated in the synthesized complementary strand; 3' TTTTT single-stranded linker to array surface; dsDNA, one strand shown.
T1 sequence: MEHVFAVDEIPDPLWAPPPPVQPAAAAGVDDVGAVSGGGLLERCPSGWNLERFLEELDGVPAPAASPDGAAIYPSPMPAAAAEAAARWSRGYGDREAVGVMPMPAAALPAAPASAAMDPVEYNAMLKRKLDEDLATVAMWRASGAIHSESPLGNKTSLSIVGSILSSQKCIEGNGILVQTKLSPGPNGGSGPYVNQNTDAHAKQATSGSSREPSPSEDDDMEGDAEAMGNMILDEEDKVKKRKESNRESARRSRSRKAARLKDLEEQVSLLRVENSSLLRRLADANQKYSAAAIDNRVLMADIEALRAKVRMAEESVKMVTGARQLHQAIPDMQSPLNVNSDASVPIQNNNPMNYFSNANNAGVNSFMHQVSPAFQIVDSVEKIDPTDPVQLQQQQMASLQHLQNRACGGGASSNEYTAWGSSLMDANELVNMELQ
Outline: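 Binding signal here means per-feature fluorescence intensity in arbitrary units. The values were read on an Axon 4000B scanner after a custom Agilent array, double-stranded by primer extension with Cy5-dUTP, was incubated with 200 nM protein at 25 °C for 1 h in PBS with 2% BSA, salmon testes DNA and 50 µM zinc acetate, then washed. The proteins were transcription factors with an N-terminal polyhistidine tag and DsRed, expressed in E. coli BL21-CodonPlus and purified on Ni–NTA.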

| Sequence | binding signal |
| --- | --- |
| GCGAGCGGCGGCGAGGAGTTCCACGGCGCCAAGGTCGCTGCGGAGTCACCTAGTGCAG | 5820 fluorescence intensity (a.u.) |
| AATACCAACTGTTTGATTTGAATCGTGTGATGTACTTCACCGGAGTCACCTAGTGCAG | 3360 fluorescence intensity (a.u.) |
| GCGGATTCCTTCCTTCCTCCCTCCGTCGCCGCCTTCTCTTCGGAGTCACCTAGTGCAG | 20600 fluorescence intensity (a.u.) |
| TAAAATTGTCACACTCCCTATGTATGATGTGTTAGCGTTGCGGAGTCACCTAGTGCAG | 3730 fluorescence intensity (a.u.) |
| GTGTGGGGCCACGTCACAGTGGGCCCCATATGTCGGTGGGCGGAGTCACCTAGTGCAG | 12700 fluorescence intensity (a.u.) |
| GTGTCGCCGAAGCTATAAAAGCGATCGGAAATAATCAGAACGGAGTCACCTAGTGCAG | 29700 fluorescence intensity (a.u.) |
| ATGCATATATTATAGGTGCCGGTTTTATACCGATGATCAACGGAGTCACCTAGTGCAG | 18100 fluorescence intensity (a.u.) |
| CTCACTTGCAACGTCAGTTAAAACTAGTTACTATGCTGTCCGGAGTCACCTAGTGCAG | 4930 fluorescence intensity (a.u.) |
| TACCACTCATTTGTGATAGATGAGATGCCACTTGTCTCCCCGGAGTCACCTAGTGCAG | 3810 fluorescence intensity (a.u.) |
| AGCCAAACGCCCTCCACCCATAGCCTGACAAGTGGGACCCCGGAGTCACCTAGTGCAG | 19200 fluorescence intensity (a.u.) |
| GCAGCGCCGTGAACGGCTCCGGCGGCCGCGTCACGAGCGTCGGAGTCACCTAGTGCAG | 6070 fluorescence intensity (a.u.) |
| GGAGGGTGGGGTAGGAGAGGATGCGGCGGGCGCCATGGCTCGGAGTCACCTAGTGCAG | 3450 fluorescence intensity (a.u.) |
| GGTATATCCCCGGCCGTCTGCCACCTACCATATGGCGTTGCGGAGTCACCTAGTGCAG | 4060 fluorescence intensity (a.u.) |
| TCAAATACCTGCCCGTACCCATGGACAGGCCAAAAGTTCACGGAGTCACCTAGTGCAG | 3660 fluorescence intensity (a.u.) |
| GTCACGATAGCCACGGTGCATGCGGAGGAGGCATATGACACGGAGTCACCTAGTGCAG | 24900 fluorescence intensity (a.u.) |
| CCTCGTATGTCATGTTGTCTGGATCATCGTTATCATCCTGCGGAGTCACCTAGTGCAG | 3160 fluorescence intensity (a.u.) |
| GCTGTTGGAGTGAGGAATGAGTTTGGTTTGCCAAATCAATCGGAGTCACCTAGTGCAG | 6630 fluorescence intensity (a.u.) |
| AAACTCCCTCCTCTTCACTCCCAATCCGCCCTAAACGCCACGGAGTCACCTAGTGCAG | 3160 fluorescence intensity (a.u.) |
| TATAATGTTTCATTAGGTAGTACCACCATAGTACTCCAAACGGAGTCACCTAGTGCAG | 21400 fluorescence intensity (a.u.) |
| AAAATTCGAATCAGGCGGAGCCACCTCACCTCGCCGCGGCCGGAGTCACCTAGTGCAG | 5020 fluorescence intensity (a.u.) |
| TTCCCCTCTTCTAGGTATTCGTGACTCGGTTGGCACAAATCGGAGTCACCTAGTGCAG | 4720 fluorescence intensity (a.u.) |

2 entries from above, as labelled records:
TATAATGTTTCATTAGGTAGTACCACCATAGTACTCCAAACGGAGTCACCTAGTGCAG
  binding signal: 21400 fluorescence intensity (a.u.)
AAAATTCGAATCAGGCGGAGCCACCTCACCTCGCCGCGGCCGGAGTCACCTAGTGCAG
  binding signal: 5020 fluorescence intensity (a.u.)

(cont.)

| Sequence | binding signal |
| --- | --- |
| GTACAGAGGATCGGCGCCCACCACATCACCCATGTCCCAGCGGAGTCACCTAGTGCAG | 6620 fluorescence intensity (a.u.) |
| CTATCTCACACGTCTCGCCTCTCTCCGCTTCGGCGCTTGGCGGAGTCACCTAGTGCAG | 3410 fluorescence intensity (a.u.) |
| TTATGATCCAGGAATGGTGCACTGTGGTGAGTTGTGATGTCGGAGTCACCTAGTGCAG | 3690 fluorescence intensity (a.u.) |
| GGCCTCCGCCGCACGCACCCTCCCCATCGTGGCGCGCGCCCGGAGTCACCTAGTGCAG | 3750 fluorescence intensity (a.u.) |
| AAAATCTGTCATCGTCGTATCATGCATGTCGAATGTTTTGCGGAGTCACCTAGTGCAG | 4380 fluorescence intensity (a.u.) |
| TGGCTAACTACTCAACATGCACTTGGTTCATTCGCCGTCACGGAGTCACCTAGTGCAG | 3580 fluorescence intensity (a.u.) |
| CACCTTAAATTAGGTGACATCGGCCTATTTGAATTTGGCTCGGAGTCACCTAGTGCAG | 3900 fluorescence intensity (a.u.) |
| GTACGTACGCAGGCCAAGCCGTCGTACACGTAACACGTCCCGGAGTCACCTAGTGCAG | 6110 fluorescence intensity (a.u.) |
| CCATAATGCAGATTAATAAATATTGAGTGTATCCATCATACGGAGTCACCTAGTGCAG | 5010 fluorescence intensity (a.u.) |
| CTGTTTGGTTGTGCAGAAGGTATATTGACCATGCAGGGTACGGAGTCACCTAGTGCAG | 3530 fluorescence intensity (a.u.) |
| TGTACTTTTCCCAATCCCTAGTCATCCCTTTACTAGGCCCCGGAGTCACCTAGTGCAG | 3270 fluorescence intensity (a.u.) |
| AAGCACCACCTCAGCGTGGACTAGATCTCCGGTTGGCTTACGGAGTCACCTAGTGCAG | 3270 fluorescence intensity (a.u.) |
| TCGATCCTGATTGAACGGTCATGATTTATAAGTTCTATTTCGGAGTCACCTAGTGCAG | 3350 fluorescence intensity (a.u.) |
| ATTTGTCTTATGTATATGCTGTATAGGATCTATGGACGCCCGGAGTCACCTAGTGCAG | 3520 fluorescence intensity (a.u.) |
| AGATTATAGCTAAAATAAATCTTAGGTGGCAATGCCAAAACGGAGTCACCTAGTGCAG | 3400 fluorescence intensity (a.u.) |
| TGTCCTTGTGGTGGTAAACCATTTGTTTAGCCCAGAAGCGCGGAGTCACCTAGTGCAG | 28800 fluorescence intensity (a.u.) |
| TTGCGTTTATTTCATATCGTGAGCAATGGTGTGACATTGGCGGAGTCACCTAGTGCAG | 3600 fluorescence intensity (a.u.) |
| TGGACGGAGGTAGTAACCGTGTCATCAACCATATTGCGCCCGGAGTCACCTAGTGCAG | 3510 fluorescence intensity (a.u.) |
| GCATTGTGTATTTGTGTGTTACTGTATTTAGTGATAAACCCGGAGTCACCTAGTGCAG | 22600 fluorescence intensity (a.u.) |
| TTATACTATATTATCCTTCCTCTCCCATGTATTGAGGGTGCGGAGTCACCTAGTGCAG | 3610 fluorescence intensity (a.u.) |
| GGCGGAAGAGGACGCGGTTCGTGCGTGCGCCACCGTCGGCCGGAGTCACCTAGTGCAG | 3520 fluorescence intensity (a.u.) |
